{"source": "patent US20170319256A1", "about": "“METHOD OF SELECTIVELY KILLING CANCER CELLS USING LOW-TEMPERATURE PLASMA JET DEVICE AND METHOD OF TREATING TUMORS USING THE SAME” (Dong-A University Research Foundation for Industry-Academy …, priority 2016, published 2017)", "key": {"WT-MEF": {"test_system": "WT-MEF", "assay": "Circadian oscillation of clock-controlled gene BMAL1 (immunoblotting)", "assay_type": "cell-based, mouse", "details": "FIG. 6A"}, "CRYDKO-MEF": {"test_system": "CRYDKO-MEF", "assay": "Circadian oscillation of clock-controlled gene BMAL1 (immunoblotting)", "assay_type": "cell-based, mouse", "details": "FIG. 6A"}}, "note": "For at least one compound, name, drawing or mass did not settle the structure.", "data": [{"compound": "C=C[C@@]1(C)CC(=O)[C@]2(O)[C@@]3(C)[C@@H](O)CCC(C)(C)[C@@H]3[C@H](O)[C@H](OC(C)=O)[C@@]2(C)O1", "note": "[forskolin]", "values": [{"measurement": "circadian oscillation of BMAL1 as readout for clock activity", "setting": "WT-MEF", "result": "generated a robust circadian oscillation"}, {"measurement": "circadian oscillation of BMAL1 as readout for clock activity", "setting": "CRYDKO-MEF", "result": "not in CRYDKO-MEF"}]}]}
